Results published in article PMC8256288.
Results are given in words; binding and its absence hold for the method and conditions named. Binding seen in cells or lysates may run through a third protein. Some results given as binding are weak or reduced against the parent protein; the word gives no strength.

By UniProt entry, the sequences of proteins in these tests, tags left out. Where a name states a change or a piece, a line headed by the entry shows the natural chain unless it says otherwise. Chains listed by the source or under a name are the forms on record and can include a tag or linker.
UniProt Q5FBB7: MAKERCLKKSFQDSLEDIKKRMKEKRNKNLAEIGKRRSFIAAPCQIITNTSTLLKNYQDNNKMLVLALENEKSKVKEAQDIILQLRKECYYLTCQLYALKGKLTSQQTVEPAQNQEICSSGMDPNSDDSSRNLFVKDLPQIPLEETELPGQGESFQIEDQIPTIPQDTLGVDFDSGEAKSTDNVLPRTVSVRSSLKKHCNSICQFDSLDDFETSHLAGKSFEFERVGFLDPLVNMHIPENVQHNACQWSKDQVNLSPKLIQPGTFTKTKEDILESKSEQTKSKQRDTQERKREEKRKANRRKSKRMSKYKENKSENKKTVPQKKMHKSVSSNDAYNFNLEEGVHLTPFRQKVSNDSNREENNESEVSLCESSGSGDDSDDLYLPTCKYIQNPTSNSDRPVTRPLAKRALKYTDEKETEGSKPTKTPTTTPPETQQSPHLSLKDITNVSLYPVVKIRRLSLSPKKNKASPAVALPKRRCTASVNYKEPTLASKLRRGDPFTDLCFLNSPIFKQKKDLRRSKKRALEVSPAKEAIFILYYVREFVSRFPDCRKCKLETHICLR
YFP‐hSgo1 4A (Q5FBB7, form named): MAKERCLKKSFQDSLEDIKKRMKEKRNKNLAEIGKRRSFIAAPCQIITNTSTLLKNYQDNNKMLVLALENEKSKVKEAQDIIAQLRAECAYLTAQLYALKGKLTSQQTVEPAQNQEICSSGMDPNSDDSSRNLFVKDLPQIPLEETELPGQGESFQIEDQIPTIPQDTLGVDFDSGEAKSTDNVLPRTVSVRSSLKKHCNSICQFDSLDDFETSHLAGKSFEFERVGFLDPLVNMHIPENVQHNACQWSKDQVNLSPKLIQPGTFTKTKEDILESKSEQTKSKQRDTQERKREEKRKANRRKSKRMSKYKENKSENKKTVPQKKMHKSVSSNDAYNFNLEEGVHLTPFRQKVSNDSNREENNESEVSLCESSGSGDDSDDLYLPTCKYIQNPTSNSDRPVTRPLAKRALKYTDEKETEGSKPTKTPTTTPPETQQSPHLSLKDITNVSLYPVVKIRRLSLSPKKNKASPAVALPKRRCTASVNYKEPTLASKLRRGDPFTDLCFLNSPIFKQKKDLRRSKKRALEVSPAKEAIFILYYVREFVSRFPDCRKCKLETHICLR
YFP‐hSgo1 3A (Q5FBB7, form named): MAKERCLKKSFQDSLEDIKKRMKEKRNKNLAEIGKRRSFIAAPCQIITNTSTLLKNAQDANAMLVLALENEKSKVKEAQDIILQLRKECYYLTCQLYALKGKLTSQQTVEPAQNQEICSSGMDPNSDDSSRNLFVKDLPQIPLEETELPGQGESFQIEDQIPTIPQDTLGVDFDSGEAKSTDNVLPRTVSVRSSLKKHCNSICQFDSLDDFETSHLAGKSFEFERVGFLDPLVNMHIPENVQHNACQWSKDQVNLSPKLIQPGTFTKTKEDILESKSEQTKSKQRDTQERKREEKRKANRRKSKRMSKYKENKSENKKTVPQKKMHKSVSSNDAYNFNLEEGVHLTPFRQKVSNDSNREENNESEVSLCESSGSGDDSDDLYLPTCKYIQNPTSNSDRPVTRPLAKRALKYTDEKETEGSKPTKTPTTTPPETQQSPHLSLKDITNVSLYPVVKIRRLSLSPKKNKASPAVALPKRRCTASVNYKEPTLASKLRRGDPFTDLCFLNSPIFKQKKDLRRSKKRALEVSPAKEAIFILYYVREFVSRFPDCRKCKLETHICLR
UniProt Q9UQE7: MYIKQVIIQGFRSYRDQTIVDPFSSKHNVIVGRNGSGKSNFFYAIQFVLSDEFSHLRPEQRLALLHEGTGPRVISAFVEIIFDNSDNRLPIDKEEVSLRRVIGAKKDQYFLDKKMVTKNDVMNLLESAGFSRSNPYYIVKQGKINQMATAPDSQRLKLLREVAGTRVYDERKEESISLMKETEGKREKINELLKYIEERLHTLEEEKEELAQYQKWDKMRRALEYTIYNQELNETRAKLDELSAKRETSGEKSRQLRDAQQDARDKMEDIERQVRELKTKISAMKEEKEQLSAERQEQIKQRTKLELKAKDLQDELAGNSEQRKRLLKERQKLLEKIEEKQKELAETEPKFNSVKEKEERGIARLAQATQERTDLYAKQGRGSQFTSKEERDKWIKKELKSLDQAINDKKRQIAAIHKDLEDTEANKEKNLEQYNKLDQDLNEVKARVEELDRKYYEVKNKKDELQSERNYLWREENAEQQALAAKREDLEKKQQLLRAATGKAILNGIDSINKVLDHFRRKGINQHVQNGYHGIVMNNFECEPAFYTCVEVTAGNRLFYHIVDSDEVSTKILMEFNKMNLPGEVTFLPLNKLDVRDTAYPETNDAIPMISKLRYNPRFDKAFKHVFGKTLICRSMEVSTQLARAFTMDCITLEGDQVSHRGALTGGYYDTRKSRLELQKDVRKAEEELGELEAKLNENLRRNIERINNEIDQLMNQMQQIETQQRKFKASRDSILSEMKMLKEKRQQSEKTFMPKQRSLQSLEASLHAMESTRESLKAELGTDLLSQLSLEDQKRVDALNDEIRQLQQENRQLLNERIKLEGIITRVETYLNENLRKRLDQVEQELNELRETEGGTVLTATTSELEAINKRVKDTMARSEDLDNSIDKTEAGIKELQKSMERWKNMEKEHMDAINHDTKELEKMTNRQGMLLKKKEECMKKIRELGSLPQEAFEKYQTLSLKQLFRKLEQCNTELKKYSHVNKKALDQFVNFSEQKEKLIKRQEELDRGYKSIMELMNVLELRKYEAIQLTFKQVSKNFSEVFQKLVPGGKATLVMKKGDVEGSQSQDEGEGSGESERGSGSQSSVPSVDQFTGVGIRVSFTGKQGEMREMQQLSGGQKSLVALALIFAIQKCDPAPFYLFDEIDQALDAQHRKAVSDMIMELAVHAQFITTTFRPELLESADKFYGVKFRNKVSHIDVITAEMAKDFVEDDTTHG

How the values were obtained:
Experiment in all cases: co-IP; IP of stably expressed YFP-hSgo1 WT, 3A, 4A; immunoblot of Smc1 and Smc3, LI-COR; salt not stated for this experiment
YFP‐hSgo1 WT (human) = YFP‐hSgo1 WT (human) (UniProt Q5FBB7)
YFP‐hSgo1 4A (human) = YFP‐hSgo1 4A (human) (UniProt Q5FBB7)
YFP‐hSgo1 3A (human) = YFP‐hSgo1 3A (human) (UniProt Q5FBB7)

Measured: binding

Smc3 (endogenous) (from UniProt Q9UQE7 1-1217)
binds: YFP‐hSgo1 WT (human) | YFP‐hSgo1 4A (human) | YFP‐hSgo1 3A (human)
